Test results published in patent US20030175273A1 (Kyowa Kirin, published 2003).
No constants are given. Whether binding was seen depends on the method and setting. Some binding calls cover weakened binding; strength is not graded here.

Assays:
[1] = molecular target: T1, BSA-Compound 1 (human CCR4 extracellular region peptide Compound 1 conjugated with BSA) (human); test: ELISA on BSA-Compound 1; reference antibody
T1 sequence (peptide, conjugated to BSA (bovine serum albumin) through SMCC): DESIYSNYYLYESIPKPC

[2] = molecular target: T2, human CC chemokine receptor 4 (CCR4) on CCR4/EL-4 cells (human) (UniProt P51679); test: flow cytometry on CCR4/EL-4 cells; reference antibody
T2 sequence: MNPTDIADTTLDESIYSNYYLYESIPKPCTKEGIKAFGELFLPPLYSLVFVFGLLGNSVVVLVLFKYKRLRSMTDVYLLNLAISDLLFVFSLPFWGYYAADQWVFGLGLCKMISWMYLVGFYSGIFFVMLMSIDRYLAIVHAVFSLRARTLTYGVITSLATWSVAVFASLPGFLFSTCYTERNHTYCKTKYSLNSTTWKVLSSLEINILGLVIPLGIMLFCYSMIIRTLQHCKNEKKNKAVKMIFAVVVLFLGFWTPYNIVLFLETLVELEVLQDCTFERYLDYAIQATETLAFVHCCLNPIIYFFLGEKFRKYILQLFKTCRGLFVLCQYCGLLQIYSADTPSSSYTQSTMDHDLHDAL

binding [1]: binds
binding [2]: binds
B1: anti-CCR4 human chimeric antibody KM2760 (antibody, human IgG1, V domains shown)
VH: EVQLVESGGDLMKPGGSLKISCAASGFIFSNYGMSWVRQTPDMRLEWVATISSASTYSYYPDSVKGRFTISRDNAENSLYLQMNSLRSEDTGIYYCGRHSDGNFAFGYWGRGTLVTVSA
VL: DVLMTQTPLSLPVSLGDQASISCRSSRNIVHINGDTYLEWYLQRPGQSPKLLIYKVSNRFSGVPDRFSGSGSGTDFTLKISRVEAEDLGVYYCFQGSLLPWTFGGGTRLEIRR
